The series can be described thus: general procedure: solution-phase peptide synthesis; bromotripyrrolidinophosphonium hexafluorophosphate, N,N-diisopropylethylamine. As to conditions: coupling step.

As to Fmoc-Ala-Ala-Ala-oxazinone, the step yield is 68%.

For the origin of these results see US20080281075 (published 2008).
